Measurements published in patent US20100197657A1, “2-ARYL OR HETEROARYL INDOLE DERIVATIVES” (priority 2007, published 2010).
Some entries share one result that the patent states for a list of compounds.

These compounds were tested against T1, human ASIC3 (Homo sapiens, UniProt Q9UHC3) (assay: In vitro assay for ASIC activity, whole-cell patch clamp, hASIC3 cell line). Settings: at 10 uM; percent inhibition vs. baseline current.
T1 construct: expressed in transfected cells; host or cells: HEK293
T1 sequence (Q9UHC3 1-531): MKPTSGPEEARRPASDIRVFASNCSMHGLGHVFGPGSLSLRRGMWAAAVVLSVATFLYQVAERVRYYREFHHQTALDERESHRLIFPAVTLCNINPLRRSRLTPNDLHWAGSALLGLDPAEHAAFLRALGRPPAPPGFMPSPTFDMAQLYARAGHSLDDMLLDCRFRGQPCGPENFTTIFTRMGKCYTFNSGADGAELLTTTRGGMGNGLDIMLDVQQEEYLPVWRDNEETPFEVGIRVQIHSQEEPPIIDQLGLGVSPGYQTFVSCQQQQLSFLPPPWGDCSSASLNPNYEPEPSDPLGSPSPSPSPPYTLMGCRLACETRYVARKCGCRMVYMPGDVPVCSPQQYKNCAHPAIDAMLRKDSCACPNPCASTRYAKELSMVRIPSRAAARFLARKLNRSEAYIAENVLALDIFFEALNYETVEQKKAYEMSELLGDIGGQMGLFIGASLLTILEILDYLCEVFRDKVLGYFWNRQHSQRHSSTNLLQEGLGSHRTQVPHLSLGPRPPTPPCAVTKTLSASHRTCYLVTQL
Type: cell-based
Procedure: Cell Preparation: Human embryonic kidney cells (HEK293) stably expressing the human ASIC ion channel, are grown to 70-90% confluence in T75 cell culture flasks. Cells are lifted by removing the growth media and incubating with 3 ml of warmed (37° C.) 50/50 Trypsin/Dulbecco's Solution (GIBCO, USA) for 4-6 minutes. 7 ml of pH7.4_HBS (see Solutions and Drugs) is then added to block Trypsin activity. The cell suspension is placed into a 10 ml centrifuge tube and centrifuged for 1 minute @ 150×G. After centrifugation, the supernatant is aspirated and the cell pellet is re-suspended in 2-5 ml of pH7.4_HBS for a final cell density of ˜0.6×10^6 cells/ml. For whole-cell patch clamp, approximately 1000 cells are placed in a recording chamber containing standard bath solution for electrophysiological recording.
Solutions and Drugs: The intracellular solution contains (mM): 119 K-gluconate, 15 KCl, 3.2 MgCl2, 5 EGTA, 5 HEPES, 5 K2ATP, pH 7.3. The standard bath solution (pH7.4_HBS) contains (mM): 150 NaCl, 5 KCl, 2 CaCl2, 1 MgCl2, 10 HEPES, 12 Dextrose, pH 7.4. The acid-activation bath solution (pH5.5_MBS) contains (mM): 150 NaCl, 5 KCl, 2 CaCl2, 1 MgCl2, 10 MES, 12 Dextrose, pH 5.5. Test compounds were prepared as 2 or 10 mM stock solutions in DMSO and diluted in either pH7.4_HBS or pH5.5_MBS to final concentration.
Electrophysiological recording: Patch clamp recording pipettes were pulled from borosilicate glass and typically had 2-4 MOhm resistances. Whole cell currents were recorded with a patch clamp amplifier (Multiclamp 700B, Axon Instruments Inc). Holding and test potential was −60 mV. Control and compound solutions perfused the vicinity of the cell with flow controlled by computer-operated solenoid valves. 10-90% solution exchange typically took <20 ms. After establishment of whole cell configuration, cells were perfused with pH7.4_HBS. Baseline ASIC current was determined by application of pH5.5_MBS at two minute intervals. After a stable ASIC current was determined, inhibition of acid evoked current was determined by multiple applications of increasing concentrations (3-fold dilution) of compound. Inhibition of current was expressed as percent inhibition vs. baseline current. A minimum of three independent determinations at each concentration of compound was used for each data point. IC50s were determined using the Hill Equation.

Compound | levels of inhibition of acid-evoked ASIC current
NCc1ccc2[nH]c(-c3ccc(C=O)s3)cc2c1 [compound 221] | greater than 20%
CC(=O)c1ccc(-c2cc3cc(CN)ccc3[nH]2)s1 [compound 222] | greater than 20%
CCOC(=O)c1ccc(-c2cc3cc(CN)ccc3[nH]2)s1 [compound 224] | greater than 20%
NCc1ccc2[nH]c(-c3ccc(S(N)(=O)=O)s3)cc2c1 [compound 225] | greater than 20%
NCc1ccc2[nH]c(-c3ccc(-c4ccon4)s3)cc2c1 [compound 227] | greater than 20%
NCc1ccc2[nH]c(-c3nnc(N)s3)cc2c1 [compound 228] | greater than 20%
NCc1ccc2[nH]c(-c3nccs3)cc2c1 [compound 229] | greater than 20%
NCc1ccc2[nH]c(-c3cnc(N)s3)cc2c1 [compound 230] | greater than 20%
CC(C)(C)c1nc(N)sc1-c1cc2cc(CN)ccc2[nH]1 [compound 231] | greater than 20%
Cc1nc(-c2ccccc2)sc1-c1cc2cc(CN)ccc2[nH]1 [compound 232] | greater than 20%
Cc1nc(-c2ccc(C(F)(F)F)cc2)sc1-c1cc2cc(CN)ccc2[nH]1 [compound 233] | greater than 20%
COC(=O)c1nc(N)sc1-c1cc2cc(CN)ccc2[nH]1 [compound 234] | greater than 20%
NCc1ccc2[nH]c(-c3ccns3)cc2c1 [compound 235] | greater than 20%
NCc1ccc2[nH]c(-c3ccsc3)cc2c1 [compound 237] | greater than 20%
NCc1ccc2[nH]c(-c3ccsc3Cl)cc2c1 [compound 238] | greater than 20%
NCc1ccc2[nH]c(-c3ccsc3C=O)cc2c1 [compound 239] | greater than 20%
COC(=O)c1sccc1-c1cc2cc(CN)ccc2[nH]1 [compound 241] | greater than 20%

Compound | levels of inhibition of acid-evoked ASIC current
N#Cc1sccc1-c1cc2cc(CN)ccc2[nH]1 [compound 242] | greater than 20%
NCc1ccc2[nH]c(-c3csc(C=O)c3)cc2c1 [compound 243] | greater than 20%
COC(=O)c1scc(-c2cc3cc(CN)ccc3[nH]2)c1O [compound 244] | greater than 20%
NCc1ccc2[nH]c(-c3ccsn3)cc2c1 [compound 246] | greater than 20%
Cc1nscc1-c1cc2cc(CN)ccc2[nH]1 [compound 247] | greater than 20%
NCc1ccc2[nH]c(-c3csnc3C(=O)O)cc2c1 [compound 248] | greater than 20%
NCc1ccc2[nH]c(-c3ccc(C=O)o3)cc2c1 [compound 249] | greater than 20%
COC(=O)c1ccc(-c2cc3cc(CN)ccc3[nH]2)o1 [compound 251] | greater than 20%
Cc1onc(-c2ccccc2)c1-c1cc2cc(CN)ccc2[nH]1 [compound 252] | greater than 20%
Cc1noc(C)c1-c1cc2cc(CN)ccc2[nH]1 [compound 253] | greater than 20%
Cn1cnc(-c2cc3cc(CN)ccc3[nH]2)c1 [compound 254] | greater than 20%
CN(C)S(=O)(=O)n1cnc(-c2cc3cc(CN)ccc3[nH]2)c1 [compound 255] | greater than 20%
NCc1ccc2[nH]c(-c3cn[nH]c3)cc2c1 [compound 256] | greater than 20%
Cn1ncc(-c2cc3cc(CN)ccc3[nH]2)c1-c1ccccc1 [compound 258] | greater than 20%
Cn1ncc(-c2cc3cc(CN)ccc3[nH]2)c1C=O [compound 259] | greater than 20%
Cc1c(-c2cc3cc(CN)ccc3[nH]2)cnn1-c1ccccc1 [compound 260] | greater than 20%
NCc1ccc2[nH]c(-c3nc(Cl)c(Cl)[nH]3)cc2c1 [compound 261] | greater than 20%
